Reference: PubChem BioAssay AID1259254 (NCATS, 2017)
The whole screen tested about 59,000 reagents; shown is an unselected part. About 1,550 of all reagents (2.6%) were called active. 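G2 share is only a proxy for re-replication; each gene was hit by three separate siRNAs, and active genes were retested.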 The numbers tell different reagents against one gene apart. Not all columns of the deposit are shown. The record does not give: the amount of reagent.

Purpose: 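Finding genes that stop cells copying their DNA twice in one cycle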 (primary screen)
Cells: human HCT116 colorectal cancer cells
Knock-down reagent: single siRNA against human genes
Timing: 3 days
Measurement: 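Nuclei stained with Hoechst and imaged; cell-cycle phase assigned by DNA content; G2 share scaled per plate, non-targeting siRNA 0%, GMNN siRNA 100%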
Direction: G2 robust z-score: higher = more G2 cells, more excess DNA replication
Hit rule: 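An siRNA counts as active if its G2 robust z-score lies at least 5 MADs above the screen median; here such calls match roughly 38% of GMNN control or more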

G2 robust z-score, by target gene and reagent
CCDC163 (CCDC163 homolog): #1 -0.56 inactive; #2 0.0904 inactive; #3 -0.647 inactive
GREM2 (gremlin 2, DAN family BMP antagonist): #1 -0.707 inactive; #2 4.8 inactive; #3 -0.505 inactive
AKR1B1 (aldo-keto reductase family 1 member B): #1 0.363 inactive; #2 1.42 inactive; #3 1.05 inactive
THRSP (thyroid hormone responsive): #1 -0.647 inactive; #2 -0.372 inactive; #3 -0.959 inactive
TSPO (translocator protein): #1 -0.0647 inactive; #2 -0.972 inactive; #3 -0.115 inactive
SART3 (spliceosome associated factor 3, U4/U6 recycling protein): #1 4.3 inactive; #2 -0.157 inactive; #3 -0.0288 inactive
MARCHF7 (membrane associated ring-CH-type finger 7): #1 -0.655 inactive; #2 0.281 inactive; #3 -1.18 inactive
SSTR2 (somatostatin receptor 2): #1 5.04 active; #2 0.955 inactive; #3 1.92 inactive
ALDH9A1 (aldehyde dehydrogenase 9 family member A1): #1 -0.443 inactive; #2 -0.573 inactive; #3 3.42 inactive
TAS2R42 (taste 2 receptor member 42): #1 2.37 inactive; #2 0.38 inactive; #3 -0.139 inactive
SIRAL1 (SIR2 antiphage like 1): #1 5.88 active; #2 2.36 inactive; #3 0.209 inactive
PAK1IP1 (PAK1 interacting protein 1): #1 1.97 inactive; #2 0.459 inactive; #3 -0.786 inactive
LPAL2 (lipoprotein(a) like 2 (pseudogene)): #1 -0.629 inactive; #2 0.322 inactive; #3 2.32 inactive
CARD11 (caspase recruitment domain family member 11): #1 0.0126 inactive; #2 -0.224 inactive; #3 -0.379 inactive
KCNE1: #1 -0.749 inactive; #2 0.318 inactive; #3 0.716 inactive
ADIPOQ (adiponectin, C1Q and collagen domain containing): #1 0.543 inactive; #2 0.264 inactive; #3 -0.398 inactive

Individual results from the list:
For “G2 robust z-score”, TSPO (translocator protein) #2 shows -0.972
Result for MARCHF7 (membrane associated ring-CH-type finger 7) #2 under “outcome”: inactive
For “G2 robust z-score”, SSTR2 (somatostatin receptor 2) #2 reads 0.955
Entry of ALDH9A1 (aldehyde dehydrogenase 9 family member A1) #3 in “G2 robust z-score”: 3.42
Entry of THRSP (thyroid hormone responsive) #3 under “G2 robust z-score”: -0.959
Entry of TAS2R42 (taste 2 receptor member 42) #1 under “G2 robust z-score”: 2.37
